Laboratory results reported in PMC7520452.
No constants are given. Whether binding was seen depends on the method and setting. In cells and extracts the contact can be indirect. Tags and fused reporters may be left off the sequences shown.

Target: Myc–CUL4
Assay: co-IP; 293T cells co-transfected with FLAG–Borealin and HA- or Myc-tagged partner, 10 µM MG132 for 5 h; extracts immunoprecipitated with polyclonal antibody against HA or Myc, immunoblotting

- binding: no binding
B1: FLAG-tagged wild-type (WT) borealin (protein, UniProt Q53HL2 1-280)
chain: MAPRKGSSRVAKTNSLRRRKLASFLKDFDREVEIRIKQIESDRQNLLKEVDNLYNIEILRLPKALREMNWLDYFALGGNKQALEEAATADLDITEINKLTAEAIQTPLKSAKTRKVIQVDEMIVEEEEEEENERKNLQTARVKRCPPSKKRTQSIQGKGKGKRSSRANTVTPAVGRLEVSMVKPTPGLTPRFDSRVFKTPGLRTPAAGERIYNISGNGSPLADSKEIFLTVPVGGGESLRLLASDLQRHSIAQLDPEALGNIKKLSNRLAQICSSIRTHK
